From the supplement of paper PMC11732987, “Enantioselective OTUD7B fragment discovery through chemoproteomics screening and high-throughput optimisation” (Communications Chemistry, 2025)
This is one part of the list. The data scatter; read single values as rough.

Sequences of proteins named here, by UniProt entry; tags and fusion partners are left off. A change or cut given only in a name is not applied to a line headed by its entry. Residues count along the entry.
UniProt Q96HI0: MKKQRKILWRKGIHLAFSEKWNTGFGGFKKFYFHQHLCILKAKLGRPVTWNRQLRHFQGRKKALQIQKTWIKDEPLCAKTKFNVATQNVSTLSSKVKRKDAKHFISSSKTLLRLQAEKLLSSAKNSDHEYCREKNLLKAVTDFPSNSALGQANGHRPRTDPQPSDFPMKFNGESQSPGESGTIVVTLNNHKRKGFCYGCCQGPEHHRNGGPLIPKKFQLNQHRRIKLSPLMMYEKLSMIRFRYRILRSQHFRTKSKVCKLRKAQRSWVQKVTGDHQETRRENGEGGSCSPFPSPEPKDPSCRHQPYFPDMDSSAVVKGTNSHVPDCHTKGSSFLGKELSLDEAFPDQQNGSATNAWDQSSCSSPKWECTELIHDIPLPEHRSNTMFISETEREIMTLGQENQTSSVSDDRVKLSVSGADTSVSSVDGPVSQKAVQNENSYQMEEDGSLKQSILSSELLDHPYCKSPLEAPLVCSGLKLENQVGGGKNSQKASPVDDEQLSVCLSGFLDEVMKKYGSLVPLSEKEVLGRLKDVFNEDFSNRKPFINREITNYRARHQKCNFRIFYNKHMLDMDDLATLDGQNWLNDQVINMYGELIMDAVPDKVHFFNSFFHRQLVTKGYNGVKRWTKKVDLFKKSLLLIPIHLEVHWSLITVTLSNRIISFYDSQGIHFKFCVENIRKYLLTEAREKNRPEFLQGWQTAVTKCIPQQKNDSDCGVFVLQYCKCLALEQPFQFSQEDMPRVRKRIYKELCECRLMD
UniProt Q9Y3A5: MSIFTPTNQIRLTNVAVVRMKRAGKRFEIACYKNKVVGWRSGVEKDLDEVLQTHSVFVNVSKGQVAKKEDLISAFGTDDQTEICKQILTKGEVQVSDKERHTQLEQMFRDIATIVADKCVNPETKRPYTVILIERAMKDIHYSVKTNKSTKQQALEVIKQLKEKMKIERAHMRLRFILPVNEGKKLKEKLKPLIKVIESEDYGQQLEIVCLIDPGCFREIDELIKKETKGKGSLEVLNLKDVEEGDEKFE
UniProt O95470, 279-303: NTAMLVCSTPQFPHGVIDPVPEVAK
UniProt Q15436: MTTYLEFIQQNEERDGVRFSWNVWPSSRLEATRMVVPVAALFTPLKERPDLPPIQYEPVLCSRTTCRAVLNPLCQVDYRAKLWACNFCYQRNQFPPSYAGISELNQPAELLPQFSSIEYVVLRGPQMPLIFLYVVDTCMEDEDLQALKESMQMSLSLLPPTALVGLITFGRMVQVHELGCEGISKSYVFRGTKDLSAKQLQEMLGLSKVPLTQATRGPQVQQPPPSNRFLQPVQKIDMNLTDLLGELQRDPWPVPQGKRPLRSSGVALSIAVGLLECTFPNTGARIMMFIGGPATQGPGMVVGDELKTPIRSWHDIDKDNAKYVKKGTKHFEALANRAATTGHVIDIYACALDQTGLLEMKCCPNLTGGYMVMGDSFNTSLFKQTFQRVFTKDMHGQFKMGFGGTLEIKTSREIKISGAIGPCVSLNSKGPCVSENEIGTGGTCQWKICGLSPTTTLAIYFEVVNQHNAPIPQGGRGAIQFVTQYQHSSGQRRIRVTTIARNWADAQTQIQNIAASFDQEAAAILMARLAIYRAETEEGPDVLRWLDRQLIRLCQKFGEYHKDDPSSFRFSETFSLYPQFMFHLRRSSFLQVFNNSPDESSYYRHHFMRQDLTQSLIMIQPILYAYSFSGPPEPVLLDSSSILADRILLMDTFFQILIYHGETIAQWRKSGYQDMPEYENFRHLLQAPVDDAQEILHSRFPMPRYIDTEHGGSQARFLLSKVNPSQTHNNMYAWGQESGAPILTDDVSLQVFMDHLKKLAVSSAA
UniProt Q14141: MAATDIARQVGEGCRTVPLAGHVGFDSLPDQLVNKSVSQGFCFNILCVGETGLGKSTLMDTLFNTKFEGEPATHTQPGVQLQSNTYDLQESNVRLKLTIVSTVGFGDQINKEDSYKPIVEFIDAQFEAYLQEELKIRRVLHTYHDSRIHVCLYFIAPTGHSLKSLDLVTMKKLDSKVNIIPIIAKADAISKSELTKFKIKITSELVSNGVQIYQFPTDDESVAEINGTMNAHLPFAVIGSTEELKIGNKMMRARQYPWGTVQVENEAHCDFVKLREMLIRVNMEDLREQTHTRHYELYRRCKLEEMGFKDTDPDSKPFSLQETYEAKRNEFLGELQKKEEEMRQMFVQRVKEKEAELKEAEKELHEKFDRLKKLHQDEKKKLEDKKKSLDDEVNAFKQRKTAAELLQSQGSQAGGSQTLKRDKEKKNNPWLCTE
UniProt Q587I9: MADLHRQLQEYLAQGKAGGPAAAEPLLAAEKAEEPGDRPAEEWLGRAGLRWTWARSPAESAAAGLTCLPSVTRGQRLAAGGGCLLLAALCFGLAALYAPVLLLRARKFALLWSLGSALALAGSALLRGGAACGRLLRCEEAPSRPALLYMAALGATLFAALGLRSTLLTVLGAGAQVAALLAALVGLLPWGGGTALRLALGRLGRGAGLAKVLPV
UniProt Q562F6: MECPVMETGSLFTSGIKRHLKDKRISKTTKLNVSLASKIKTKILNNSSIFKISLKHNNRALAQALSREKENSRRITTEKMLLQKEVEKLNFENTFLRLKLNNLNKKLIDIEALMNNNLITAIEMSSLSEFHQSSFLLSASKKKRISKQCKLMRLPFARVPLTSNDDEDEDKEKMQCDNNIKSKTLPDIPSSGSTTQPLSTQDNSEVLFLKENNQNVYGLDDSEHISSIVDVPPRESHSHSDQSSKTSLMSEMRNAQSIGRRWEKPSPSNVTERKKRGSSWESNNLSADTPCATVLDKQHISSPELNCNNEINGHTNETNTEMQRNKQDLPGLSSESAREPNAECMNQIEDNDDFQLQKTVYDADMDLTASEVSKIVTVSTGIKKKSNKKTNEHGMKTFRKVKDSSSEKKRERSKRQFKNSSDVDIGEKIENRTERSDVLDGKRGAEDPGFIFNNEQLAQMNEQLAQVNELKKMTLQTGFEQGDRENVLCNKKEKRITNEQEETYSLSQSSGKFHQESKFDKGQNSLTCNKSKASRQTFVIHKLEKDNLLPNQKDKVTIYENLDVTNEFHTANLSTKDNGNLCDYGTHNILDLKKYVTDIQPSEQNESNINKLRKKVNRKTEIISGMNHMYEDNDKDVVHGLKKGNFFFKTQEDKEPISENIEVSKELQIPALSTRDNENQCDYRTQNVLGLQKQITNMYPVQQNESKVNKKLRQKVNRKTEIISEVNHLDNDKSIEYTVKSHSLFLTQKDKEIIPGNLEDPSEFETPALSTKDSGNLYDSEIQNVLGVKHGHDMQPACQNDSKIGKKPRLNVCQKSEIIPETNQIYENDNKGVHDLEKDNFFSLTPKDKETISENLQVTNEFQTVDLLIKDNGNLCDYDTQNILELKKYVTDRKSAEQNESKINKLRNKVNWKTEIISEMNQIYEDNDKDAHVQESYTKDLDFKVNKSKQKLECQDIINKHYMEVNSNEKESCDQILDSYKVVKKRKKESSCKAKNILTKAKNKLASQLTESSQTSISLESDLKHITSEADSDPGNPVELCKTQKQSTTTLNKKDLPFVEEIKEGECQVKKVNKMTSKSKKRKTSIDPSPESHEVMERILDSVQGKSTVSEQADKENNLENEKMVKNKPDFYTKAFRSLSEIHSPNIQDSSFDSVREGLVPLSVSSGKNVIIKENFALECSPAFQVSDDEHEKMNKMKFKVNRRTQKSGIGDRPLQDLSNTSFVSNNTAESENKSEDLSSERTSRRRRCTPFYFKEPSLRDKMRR
UniProt Q9H0K1: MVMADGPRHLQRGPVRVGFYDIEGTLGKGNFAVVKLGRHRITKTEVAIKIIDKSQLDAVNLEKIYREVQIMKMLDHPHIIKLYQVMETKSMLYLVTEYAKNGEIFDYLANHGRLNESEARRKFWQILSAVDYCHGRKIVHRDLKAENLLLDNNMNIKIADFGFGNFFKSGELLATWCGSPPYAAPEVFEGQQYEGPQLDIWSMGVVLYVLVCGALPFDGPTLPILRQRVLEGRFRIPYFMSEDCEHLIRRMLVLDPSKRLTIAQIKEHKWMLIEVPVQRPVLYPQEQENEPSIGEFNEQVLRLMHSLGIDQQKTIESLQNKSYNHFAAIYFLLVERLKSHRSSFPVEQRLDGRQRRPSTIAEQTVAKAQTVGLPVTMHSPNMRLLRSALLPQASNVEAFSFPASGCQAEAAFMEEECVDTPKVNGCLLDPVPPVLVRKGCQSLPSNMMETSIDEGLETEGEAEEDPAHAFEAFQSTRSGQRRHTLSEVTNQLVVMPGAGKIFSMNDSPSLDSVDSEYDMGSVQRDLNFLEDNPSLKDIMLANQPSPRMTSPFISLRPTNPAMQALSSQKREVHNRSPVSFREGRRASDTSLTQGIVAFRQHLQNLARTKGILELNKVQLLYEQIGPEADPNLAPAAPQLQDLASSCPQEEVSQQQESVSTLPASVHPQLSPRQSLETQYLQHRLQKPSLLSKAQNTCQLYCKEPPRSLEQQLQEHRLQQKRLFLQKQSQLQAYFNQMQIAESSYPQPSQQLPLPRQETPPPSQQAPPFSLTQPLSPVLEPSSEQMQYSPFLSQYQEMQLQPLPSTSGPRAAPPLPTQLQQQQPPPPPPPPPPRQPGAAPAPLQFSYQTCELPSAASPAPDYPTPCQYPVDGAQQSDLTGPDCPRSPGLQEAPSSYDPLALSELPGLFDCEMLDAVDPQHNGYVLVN
UniProt Q7L8J4: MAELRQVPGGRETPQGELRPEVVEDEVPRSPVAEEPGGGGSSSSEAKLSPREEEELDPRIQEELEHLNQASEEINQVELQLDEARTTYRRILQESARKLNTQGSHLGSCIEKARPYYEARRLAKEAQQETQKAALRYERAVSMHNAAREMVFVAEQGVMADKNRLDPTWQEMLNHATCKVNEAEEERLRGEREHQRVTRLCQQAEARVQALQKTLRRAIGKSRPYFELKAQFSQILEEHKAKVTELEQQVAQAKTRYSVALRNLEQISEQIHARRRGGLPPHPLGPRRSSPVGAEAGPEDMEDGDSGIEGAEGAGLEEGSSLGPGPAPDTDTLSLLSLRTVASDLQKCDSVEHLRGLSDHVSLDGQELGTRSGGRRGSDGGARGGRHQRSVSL
UniProt Q9H0F6, 129-154: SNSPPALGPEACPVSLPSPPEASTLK
UniProt Q6UVJ0: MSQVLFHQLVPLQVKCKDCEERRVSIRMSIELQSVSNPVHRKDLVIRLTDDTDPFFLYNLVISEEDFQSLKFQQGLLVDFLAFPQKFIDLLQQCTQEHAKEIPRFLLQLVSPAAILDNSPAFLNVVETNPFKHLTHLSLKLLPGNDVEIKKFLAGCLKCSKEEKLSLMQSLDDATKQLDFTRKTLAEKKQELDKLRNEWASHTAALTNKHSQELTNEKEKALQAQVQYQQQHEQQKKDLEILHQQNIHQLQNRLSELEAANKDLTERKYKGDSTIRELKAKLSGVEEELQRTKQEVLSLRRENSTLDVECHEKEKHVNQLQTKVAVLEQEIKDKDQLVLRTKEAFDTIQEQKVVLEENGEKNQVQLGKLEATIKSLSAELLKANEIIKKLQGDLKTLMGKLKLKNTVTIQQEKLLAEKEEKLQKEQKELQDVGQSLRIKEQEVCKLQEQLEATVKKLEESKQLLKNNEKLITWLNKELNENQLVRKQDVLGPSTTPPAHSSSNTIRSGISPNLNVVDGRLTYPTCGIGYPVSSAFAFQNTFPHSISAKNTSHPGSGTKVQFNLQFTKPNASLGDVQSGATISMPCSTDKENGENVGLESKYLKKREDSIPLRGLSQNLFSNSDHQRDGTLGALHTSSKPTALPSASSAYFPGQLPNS
UniProt Q96T21: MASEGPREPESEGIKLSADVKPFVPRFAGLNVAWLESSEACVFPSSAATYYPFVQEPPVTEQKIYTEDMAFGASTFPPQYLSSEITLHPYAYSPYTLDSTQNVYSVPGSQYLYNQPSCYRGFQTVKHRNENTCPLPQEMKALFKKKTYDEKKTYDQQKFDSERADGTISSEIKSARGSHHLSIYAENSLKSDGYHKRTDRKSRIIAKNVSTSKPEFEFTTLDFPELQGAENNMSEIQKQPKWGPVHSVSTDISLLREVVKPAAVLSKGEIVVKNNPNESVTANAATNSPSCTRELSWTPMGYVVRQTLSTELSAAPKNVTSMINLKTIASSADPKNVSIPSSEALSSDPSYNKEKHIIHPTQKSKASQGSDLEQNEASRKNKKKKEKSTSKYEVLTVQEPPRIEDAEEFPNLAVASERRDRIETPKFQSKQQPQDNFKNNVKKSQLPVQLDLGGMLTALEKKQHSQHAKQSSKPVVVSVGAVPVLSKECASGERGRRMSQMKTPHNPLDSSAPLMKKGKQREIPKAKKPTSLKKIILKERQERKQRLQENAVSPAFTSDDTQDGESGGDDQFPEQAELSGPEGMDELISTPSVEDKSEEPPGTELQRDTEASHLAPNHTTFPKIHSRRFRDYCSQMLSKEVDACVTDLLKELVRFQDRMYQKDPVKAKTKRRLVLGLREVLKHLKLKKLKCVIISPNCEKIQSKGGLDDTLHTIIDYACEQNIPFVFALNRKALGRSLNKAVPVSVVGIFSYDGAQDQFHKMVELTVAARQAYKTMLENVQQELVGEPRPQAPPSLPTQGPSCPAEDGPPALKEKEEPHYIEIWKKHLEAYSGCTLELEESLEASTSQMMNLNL
UniProt Q9P0V9, 325-351: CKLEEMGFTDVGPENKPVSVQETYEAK

How the values were obtained:
[1] = compound: ClCC(=O)N[C@@H]1CCCc2ccccc12; experiment: log2 mean competition ratio of IA-DTB cysteine labelling (DMSO/compound) (log2 ratio); higher = stronger cysteine engagement by compound; conditions: treatment time: 4 h, cell line lysate: HEK293T
Protocol: (§1)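 IA-DTB competitive cysteine chemoproteomics in HEK293T RIPA lysate. Lysates were treated with compound 29 or 30 at 50 or 200 µM for 4 h, then IA-DTB (500 µM, 1 h), trypsin-digested, NeutrAvidin-enriched and analysed by diaPASEF. Competition ratio = intensity DMSO / intensity compound (n=4 treated, n=64 DMSO); binding: mean log2 CR ≥ 1 and p ≤ 0.05 plus QC filters. Target is the cysteine site.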

[2] = compound: ClCC(=O)N[C@H]1CCCc2ccccc12; experiment: as above; conditions: treatment time: 4 h, cell line lysate: HEK293T
Protocol: as §1

SH3PXD2A C832 (UniProt Q5TCZ1)
log2 mean competition ratio ([1]; 50 µM): -0.337
log2 mean competition ratio ([1]; 200 µM): -0.488
log2 mean competition ratio ([2]; 50 µM): 0.202
log2 mean competition ratio ([2]; 200 µM): -0.211

SENP5 C463 (UniProt Q96HI0)
log2 mean competition ratio ([1]; 50 µM): 0.00375
log2 mean competition ratio ([1]; 200 µM): -0.0731
log2 mean competition ratio ([2]; 50 µM): -0.45
log2 mean competition ratio ([2]; 200 µM): -0.0572

SBDS C84 (UniProt Q9Y3A5)
log2 mean competition ratio ([1]; 50 µM): -0.428
log2 mean competition ratio ([1]; 200 µM): 0.291
log2 mean competition ratio ([2]; 50 µM): -0.352
log2 mean competition ratio ([2]; 200 µM): 0.328

SIMC1 C216 (UniProt Q8NDZ2)
log2 mean competition ratio ([1]; 50 µM): -0.051
log2 mean competition ratio ([1]; 200 µM): 0.163
log2 mean competition ratio ([2]; 50 µM): -0.271
log2 mean competition ratio ([2]; 200 µM): 0.301

SCARF2 C122
log2 mean competition ratio ([1]; 50 µM): -0.33
log2 mean competition ratio ([1]; 200 µM): 0.412
log2 mean competition ratio ([2]; 50 µM): -0.153
log2 mean competition ratio ([2]; 200 µM): 0.602

SGPL1 C285 (UniProt O95470)
log2 mean competition ratio ([1]; 50 µM): -0.288
log2 mean competition ratio ([1]; 200 µM): -0.48
log2 mean competition ratio ([2]; 50 µM): 0.195
log2 mean competition ratio ([2]; 200 µM): -0.244

SEC23A C423 (UniProt Q15436)
log2 mean competition ratio ([1]; 50 µM): 0.198
log2 mean competition ratio ([1]; 200 µM): -0.128
log2 mean competition ratio ([2]; 50 µM): 0.146
log2 mean competition ratio ([2]; 200 µM): -0.117

SHTN1 C550 (UniProt A0MZ66)
log2 mean competition ratio ([1]; 50 µM): -0.042
log2 mean competition ratio ([1]; 200 µM): -0.019
log2 mean competition ratio ([2]; 50 µM): 0.139
log2 mean competition ratio ([2]; 200 µM): -0.0509

SEC24D C853 (UniProt O94855)
log2 mean competition ratio ([1]; 50 µM): 0.045
log2 mean competition ratio ([1]; 200 µM): -0.114
log2 mean competition ratio ([2]; 50 µM): -0.668
log2 mean competition ratio ([2]; 200 µM): -0.293

SEPTIN6 C14 (UniProt Q14141)
log2 mean competition ratio ([1]; 50 µM): -0.0809
log2 mean competition ratio ([1]; 200 µM): 0.384
log2 mean competition ratio ([2]; 50 µM): -0.0763
log2 mean competition ratio ([2]; 200 µM): 0.271

SFT2D3 C67 (UniProt Q587I9)
log2 mean competition ratio ([1]; 50 µM): -0.429
log2 mean competition ratio ([1]; 200 µM): -0.248
log2 mean competition ratio ([2]; 50 µM): -0.208
log2 mean competition ratio ([2]; 200 µM): -0.11

SIRT5 C181 (UniProt Q9NXA8)
log2 mean competition ratio ([1]; 50 µM): -0.187
log2 mean competition ratio ([1]; 200 µM): -0.643
log2 mean competition ratio ([2]; 50 µM): 0.176
log2 mean competition ratio ([2]; 200 µM): -0.0581

SGO2 C798 (UniProt Q562F6)
log2 mean competition ratio ([1]; 50 µM): -0.193
log2 mean competition ratio ([1]; 200 µM): 0.241
log2 mean competition ratio ([2]; 50 µM): 0.133
log2 mean competition ratio ([2]; 200 µM): 0.0268

SHPRH C439 (UniProt Q149N8)
log2 mean competition ratio ([1]; 50 µM): -0.023
log2 mean competition ratio ([1]; 200 µM): -0.465
log2 mean competition ratio ([2]; 50 µM): 0.407
log2 mean competition ratio ([2]; 200 µM): -0.021

SIK2 C426 (UniProt Q9H0K1)
log2 mean competition ratio ([1]; 50 µM): -0.349
log2 mean competition ratio ([1]; 200 µM): -0.276
log2 mean competition ratio ([2]; 50 µM): -0.205
log2 mean competition ratio ([2]; 200 µM): -0.093

SHPRH C688 (UniProt Q149N8)
log2 mean competition ratio ([1]; 50 µM): 0.0883
log2 mean competition ratio ([1]; 200 µM): -0.251
log2 mean competition ratio ([2]; 50 µM): 0.184
log2 mean competition ratio ([2]; 200 µM): 0.223

SH3BP5L C109 (UniProt Q7L8J4)
log2 mean competition ratio ([1]; 50 µM): 0.0144
log2 mean competition ratio ([1]; 200 µM): 0.579
log2 mean competition ratio ([2]; 50 µM): -0.54
log2 mean competition ratio ([2]; 200 µM): 0.669

SEC23B C180 (UniProt Q15437)
log2 mean competition ratio ([1]; 50 µM): -0.2
log2 mean competition ratio ([1]; 200 µM): -0.0225
log2 mean competition ratio ([2]; 50 µM): -0.549
log2 mean competition ratio ([2]; 200 µM): -0.128

SERPINH1 C156
log2 mean competition ratio ([1]; 50 µM): -0.103
log2 mean competition ratio ([1]; 200 µM): 0.201
log2 mean competition ratio ([2]; 50 µM): 0.15
log2 mean competition ratio ([2]; 200 µM): 0.191

SETX C1915 (UniProt Q7Z333)
log2 mean competition ratio ([1]; 50 µM): 0.269
log2 mean competition ratio ([1]; 200 µM): 0.463
log2 mean competition ratio ([2]; 50 µM): -0.503
log2 mean competition ratio ([2]; 200 µM): 0.0717

SHARPIN C140 (UniProt Q9H0F6)
log2 mean competition ratio ([1]; 50 µM): -0.242
log2 mean competition ratio ([1]; 200 µM): -0.213
log2 mean competition ratio ([2]; 50 µM): 0.266
log2 mean competition ratio ([2]; 200 µM): -0.199

SH3PXD2B C664 (UniProt A1X283)
log2 mean competition ratio ([1]; 50 µM): -0.143
log2 mean competition ratio ([1]; 200 µM): 0.0227
log2 mean competition ratio ([2]; 50 µM): 0.0804
log2 mean competition ratio ([2]; 200 µM): 0.218

SASS6 C156 (UniProt Q6UVJ0)
log2 mean competition ratio ([1]; 50 µM): -0.0935
log2 mean competition ratio ([1]; 200 µM): 0.385
log2 mean competition ratio ([2]; 50 µM): 0.187
log2 mean competition ratio ([2]; 200 µM): 0.0986

SECISBP2 C489 (UniProt Q96T21)
log2 mean competition ratio ([1]; 50 µM): 0.0659
log2 mean competition ratio ([1]; 200 µM): 0.148
log2 mean competition ratio ([2]; 50 µM): -0.118
log2 mean competition ratio ([2]; 200 µM): 0.187

SEPTIN10 C325 (UniProt Q9P0V9)
log2 mean competition ratio ([1]; 50 µM): -0.268
log2 mean competition ratio ([1]; 200 µM): -0.214
log2 mean competition ratio ([2]; 50 µM): 0.182
log2 mean competition ratio ([2]; 200 µM): -0.401
